Assay results published in paper PMC6778137, “The midbody interactome reveals unexpected roles for PP1 phosphatases in cytokinesis” (Nature Communications, 2019).
Results are given in words; binding and its absence hold for the method and conditions named. In cells and extracts the contact can be indirect. These calls come from enrichment with a bait or labelling near it, and not all partners need be listed.

Amino acid sequences for entries named in this document (tags omitted).
UniProt O14578: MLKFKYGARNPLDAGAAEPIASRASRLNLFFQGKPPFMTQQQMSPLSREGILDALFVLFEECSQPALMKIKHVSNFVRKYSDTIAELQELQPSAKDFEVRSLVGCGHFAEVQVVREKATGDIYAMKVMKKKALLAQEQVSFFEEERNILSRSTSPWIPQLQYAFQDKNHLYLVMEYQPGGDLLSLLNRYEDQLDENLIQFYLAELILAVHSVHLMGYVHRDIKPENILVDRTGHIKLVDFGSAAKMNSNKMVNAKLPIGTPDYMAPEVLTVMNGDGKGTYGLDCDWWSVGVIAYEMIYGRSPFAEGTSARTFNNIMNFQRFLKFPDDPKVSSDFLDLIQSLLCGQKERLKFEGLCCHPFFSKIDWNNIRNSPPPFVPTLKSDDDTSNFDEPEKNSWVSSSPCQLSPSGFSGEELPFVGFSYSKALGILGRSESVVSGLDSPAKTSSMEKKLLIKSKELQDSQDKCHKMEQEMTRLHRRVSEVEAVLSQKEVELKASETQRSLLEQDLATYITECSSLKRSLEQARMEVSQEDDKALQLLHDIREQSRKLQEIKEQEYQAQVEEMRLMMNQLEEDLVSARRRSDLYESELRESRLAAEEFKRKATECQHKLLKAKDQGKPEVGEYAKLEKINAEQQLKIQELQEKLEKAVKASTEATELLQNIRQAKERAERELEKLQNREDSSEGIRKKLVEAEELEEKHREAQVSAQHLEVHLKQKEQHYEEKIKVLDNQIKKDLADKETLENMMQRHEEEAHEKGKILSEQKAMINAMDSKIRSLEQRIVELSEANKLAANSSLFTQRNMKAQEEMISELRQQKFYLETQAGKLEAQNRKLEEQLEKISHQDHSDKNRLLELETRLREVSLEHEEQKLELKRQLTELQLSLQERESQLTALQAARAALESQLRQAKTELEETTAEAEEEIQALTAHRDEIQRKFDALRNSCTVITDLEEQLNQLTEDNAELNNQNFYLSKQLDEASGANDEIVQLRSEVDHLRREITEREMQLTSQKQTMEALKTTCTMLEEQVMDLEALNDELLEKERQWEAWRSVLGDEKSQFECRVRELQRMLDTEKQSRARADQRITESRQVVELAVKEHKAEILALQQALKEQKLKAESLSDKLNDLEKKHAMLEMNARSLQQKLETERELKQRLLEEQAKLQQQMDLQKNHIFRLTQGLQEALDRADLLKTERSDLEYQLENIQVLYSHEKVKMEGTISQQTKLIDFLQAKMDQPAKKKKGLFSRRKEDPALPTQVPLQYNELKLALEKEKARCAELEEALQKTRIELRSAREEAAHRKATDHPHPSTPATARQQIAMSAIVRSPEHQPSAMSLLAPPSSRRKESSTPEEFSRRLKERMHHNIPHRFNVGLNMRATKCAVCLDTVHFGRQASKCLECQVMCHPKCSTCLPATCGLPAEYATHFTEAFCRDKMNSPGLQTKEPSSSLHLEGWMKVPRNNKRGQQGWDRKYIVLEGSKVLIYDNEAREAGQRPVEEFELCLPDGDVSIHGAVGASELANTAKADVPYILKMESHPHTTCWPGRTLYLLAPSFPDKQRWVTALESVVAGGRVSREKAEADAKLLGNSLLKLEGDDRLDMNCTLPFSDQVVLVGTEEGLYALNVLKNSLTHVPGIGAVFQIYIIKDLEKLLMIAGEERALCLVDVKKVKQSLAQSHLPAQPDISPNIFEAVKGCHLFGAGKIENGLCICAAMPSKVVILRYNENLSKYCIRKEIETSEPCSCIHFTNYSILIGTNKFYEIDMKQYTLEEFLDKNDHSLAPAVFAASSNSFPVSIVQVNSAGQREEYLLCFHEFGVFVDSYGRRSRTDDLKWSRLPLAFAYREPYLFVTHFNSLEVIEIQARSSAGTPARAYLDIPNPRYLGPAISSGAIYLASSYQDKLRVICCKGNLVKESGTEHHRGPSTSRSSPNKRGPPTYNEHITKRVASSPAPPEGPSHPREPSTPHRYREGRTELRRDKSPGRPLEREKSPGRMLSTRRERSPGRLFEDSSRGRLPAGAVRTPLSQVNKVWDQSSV
UniProt O43663: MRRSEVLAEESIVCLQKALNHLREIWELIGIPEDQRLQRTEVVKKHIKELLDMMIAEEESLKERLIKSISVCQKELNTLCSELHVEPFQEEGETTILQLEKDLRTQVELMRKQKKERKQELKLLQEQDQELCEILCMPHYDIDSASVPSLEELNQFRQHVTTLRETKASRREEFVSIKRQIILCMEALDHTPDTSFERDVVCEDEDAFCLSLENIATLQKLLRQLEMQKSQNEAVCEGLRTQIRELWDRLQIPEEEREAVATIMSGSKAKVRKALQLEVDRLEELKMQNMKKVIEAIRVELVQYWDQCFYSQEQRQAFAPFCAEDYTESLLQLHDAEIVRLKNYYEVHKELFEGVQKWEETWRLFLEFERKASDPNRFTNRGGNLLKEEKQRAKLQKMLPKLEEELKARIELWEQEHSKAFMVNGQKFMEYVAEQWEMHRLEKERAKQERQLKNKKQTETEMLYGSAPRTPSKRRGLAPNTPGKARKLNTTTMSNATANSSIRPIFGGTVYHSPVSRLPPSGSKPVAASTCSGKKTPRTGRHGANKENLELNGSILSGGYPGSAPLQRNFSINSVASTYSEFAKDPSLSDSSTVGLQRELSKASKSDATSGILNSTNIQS
UniProt Q15058: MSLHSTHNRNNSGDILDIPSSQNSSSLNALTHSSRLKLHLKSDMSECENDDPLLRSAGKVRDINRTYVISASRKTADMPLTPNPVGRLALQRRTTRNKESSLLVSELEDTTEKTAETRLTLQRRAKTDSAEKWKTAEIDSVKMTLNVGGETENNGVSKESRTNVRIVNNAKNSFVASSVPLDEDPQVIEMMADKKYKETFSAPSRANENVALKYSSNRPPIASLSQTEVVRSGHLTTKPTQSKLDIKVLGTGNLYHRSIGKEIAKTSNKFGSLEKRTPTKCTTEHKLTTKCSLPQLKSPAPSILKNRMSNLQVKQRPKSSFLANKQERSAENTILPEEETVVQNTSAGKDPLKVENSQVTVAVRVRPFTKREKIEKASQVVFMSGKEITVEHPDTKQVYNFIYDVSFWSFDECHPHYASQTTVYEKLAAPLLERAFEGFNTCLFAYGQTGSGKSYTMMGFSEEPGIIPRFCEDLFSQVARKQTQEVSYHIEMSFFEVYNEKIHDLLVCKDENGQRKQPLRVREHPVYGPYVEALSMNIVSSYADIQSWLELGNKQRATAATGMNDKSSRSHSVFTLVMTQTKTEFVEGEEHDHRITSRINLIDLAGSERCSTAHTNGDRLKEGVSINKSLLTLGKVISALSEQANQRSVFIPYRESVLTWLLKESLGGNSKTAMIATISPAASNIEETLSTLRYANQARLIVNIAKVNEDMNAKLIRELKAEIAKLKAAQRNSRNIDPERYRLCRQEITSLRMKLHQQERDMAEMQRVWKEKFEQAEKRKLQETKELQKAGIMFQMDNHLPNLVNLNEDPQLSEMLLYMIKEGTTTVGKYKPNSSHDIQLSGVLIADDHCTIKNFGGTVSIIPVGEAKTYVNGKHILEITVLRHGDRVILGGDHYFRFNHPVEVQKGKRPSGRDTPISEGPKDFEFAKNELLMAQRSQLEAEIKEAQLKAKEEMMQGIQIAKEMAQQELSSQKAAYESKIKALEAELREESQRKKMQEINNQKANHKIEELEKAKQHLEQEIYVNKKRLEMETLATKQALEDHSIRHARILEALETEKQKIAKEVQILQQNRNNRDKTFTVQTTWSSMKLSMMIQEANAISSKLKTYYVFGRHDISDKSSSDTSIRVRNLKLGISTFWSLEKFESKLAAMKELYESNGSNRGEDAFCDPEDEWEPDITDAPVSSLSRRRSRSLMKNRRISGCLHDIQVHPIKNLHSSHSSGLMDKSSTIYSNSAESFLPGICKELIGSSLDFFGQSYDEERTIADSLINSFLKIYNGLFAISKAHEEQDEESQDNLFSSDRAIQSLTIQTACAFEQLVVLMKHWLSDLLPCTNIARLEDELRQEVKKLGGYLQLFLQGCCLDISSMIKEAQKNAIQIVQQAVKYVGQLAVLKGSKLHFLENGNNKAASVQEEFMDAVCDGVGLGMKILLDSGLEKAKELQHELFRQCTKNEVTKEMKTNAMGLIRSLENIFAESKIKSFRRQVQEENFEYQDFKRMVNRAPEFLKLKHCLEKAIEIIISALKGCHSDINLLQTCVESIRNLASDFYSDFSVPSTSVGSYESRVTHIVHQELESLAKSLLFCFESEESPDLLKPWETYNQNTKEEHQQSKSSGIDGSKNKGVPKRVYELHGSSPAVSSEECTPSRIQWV
UniProt P53350: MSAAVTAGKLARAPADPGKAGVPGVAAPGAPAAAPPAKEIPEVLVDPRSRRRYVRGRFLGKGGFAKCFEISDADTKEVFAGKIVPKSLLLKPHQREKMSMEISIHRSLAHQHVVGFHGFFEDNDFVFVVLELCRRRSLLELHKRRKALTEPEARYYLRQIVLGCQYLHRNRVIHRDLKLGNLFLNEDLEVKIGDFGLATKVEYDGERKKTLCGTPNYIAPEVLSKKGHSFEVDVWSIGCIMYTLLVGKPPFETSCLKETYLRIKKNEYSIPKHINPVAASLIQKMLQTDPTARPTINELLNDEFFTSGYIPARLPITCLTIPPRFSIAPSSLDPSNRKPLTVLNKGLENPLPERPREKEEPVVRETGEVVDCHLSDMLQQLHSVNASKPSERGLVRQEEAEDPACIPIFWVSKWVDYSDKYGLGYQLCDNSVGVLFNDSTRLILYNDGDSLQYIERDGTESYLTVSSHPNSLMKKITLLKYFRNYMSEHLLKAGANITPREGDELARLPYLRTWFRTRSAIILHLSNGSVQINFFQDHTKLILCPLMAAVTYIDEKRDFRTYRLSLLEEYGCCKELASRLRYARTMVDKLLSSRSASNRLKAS

Key:
Test in all cases: affinity purification with mass spectrometry; GFP-tagged bait captured on GFP-Trap_MA magnetic beads from lysates of stably expressing HeLa cells synchronised in telophase (CIT-K::AcGFP also in S phase and metaphase); 20 mM Tris-HCl, 150 mM NaCl, 2 mM MgCl2, 1 mM EGTA, 0.1% NP-40, 4 h at 4 °C; hits absent from GFP-alone controls classed as specific
[1] = molecular target: Citron kinase (CIT-K) tagged with AcGFP (UniProt O14578)
[2] = molecular target: PRC1 tagged with GFP (bait) (UniProt O43663)
[3] = molecular target: KIF14 tagged with GFP (bait) (UniProt Q15058)

| binding [1] | binding [2] | binding [3] | Molecule |
| --- | --- | --- | --- |
| binds |  |  | KIF14 (endogenous, prey) (from UniProt Q15058 1-1648) |
|  | binds |  | Polo-like kinase 1 (Plk1) (from UniProt P53350 1-603) |
| binds |  |  | Anillin (endogenous, prey) (protein, UniProt Q9NQW6 1-1124) MDPFTEKLLERTRARRENLQRKMAERPTAAPRSMTHAKRARQPLSEASNQQPLSGGEEKSCTKPSPSKKRCSDNTEVEVSNLENKQPVESTSAKSCSPSPVSPQVQPQAADTISDSVAVPASLLGMRRGLNSRLEATAASSVKTRMQKLAEQRRRWDNDDMTDDIPESSLFSPMPSEEKAASPPRPLLSNASATPVGRRGRLANLAATICSWEDDVNHSFAKQNSVQEQPGTACLSKFSSASGASARINSSSVKQEATFCSQRDGDASLNKALSSSADDASLVNASISSSVKATSPVKSTTSITDAKSCEGQNPELLPKTPISPLKTGVSKPIVKSTLSQTVPSKGELSREICLQSQSKDKSTTPGGTGIKPFLERFGERCQEHSKESPARSTPHRTPIITPNTKAIQERLFKQDTSSSTTHLAQQLKQERQKELACLRGRFDKGNIWSAEKGGNSKSKQLETKQETHCQSTPLKKHQGVSKTQSLPVTEKVTENQIPAKNSSTEPKGFTECEMTKSSPLKITLFLEEDKSLKVTSDPKVEQKIEVIREIEMSVDDDDINSSKVINDLFSDVLEEGELDMEKSQEEMDQALAESSEEQEDALNISSMSLLAPLAQTVGVVSPESLVSTPRLELKDTSRSDESPKPGKFQRTRVPRAESGDSLGSEDRDLLYSIDAYRSQRFKETERPSIKQVIVRKEDVTSKLDEKNNAFPCQVNIKQKMQELNNEINMQQTVIYQASQALNCCVDEEHGKGSLEEAEAERLLLIATGKRTLLIDELNKLKNEGPQRKNKASPQSEFMPSKGSVTLSEIRLPLKADFVCSTVQKPDAANYYYLIILKAGAENMVATPLASTSNSLNGDALTFTTTFTLQDVSNDFEINIEVYSLVQKKDPSGLDKKKKTSKSKAITPKRLLTSITTKSNIHSSVMASPGGLSAVRTSNFALVGSYTLSLSSVGNTKFVLDKVPFLSSLEGHIYLKIKCQVNSSVEERGFLTIFEDVSGFGAWHRRWCVLSGNCISYWTYPDDEKRKNPIGRINLANCTSRQIEPANREFCARRNTFELITVRPQREDDRETLVSQCRDTLCVTKNWLSADTKEERDLWMQKLNQVLVDIRLWQPDACYKPIGKP |
| binds |  | binds | microtubule depolymerizing kinesin KIF2C/MCAK (protein, UniProt Q99661 1-725) MAMDSSLQARLFPGLAIKIQRSNGLIHSANVRTVNLEKSCVSVEWAEGGATKGKEIDFDDVAAINPELLQLLPLHPKDNLPLQENVTIQKQKRRSVNSKIPAPKESLRSRSTRMSTVSELRITAQENDMEVELPAAANSRKQFSVPPAPTRPSCPAVAEIPLRMVSEEMEEQVHSIRGSSSANPVNSVRRKSCLVKEVEKMKNKREEKKAQNSEMRMKRAQEYDSSFPNWEFARMIKEFRATLECHPLTMTDPIEEHRICVCVRKRPLNKQELAKKEIDVISIPSKCLLLVHEPKLKVDLTKYLENQAFCFDFAFDETASNEVVYRFTARPLVQTIFEGGKATCFAYGQTGSGKTHTMGGDLSGKAQNASKGIYAMASRDVFLLKNQPCYRKLGLEVYVTFFEIYNGKLFDLLNKKAKLRVLEDGKQQVQVVGLQEHLVNSADDVIKMIDMGSACRTSGQTFANSNSSRSHACFQIILRAKGRMHGKFSLVDLAGNERGADTSSADRQTRMEGAEINKSLLALKECIRALGQNKAHTPFRESKLTQVLRDSFIGENSRTCMIATISPGISSCEYTLNTLRYADRVKELSPHSGPSGEQLIQMETEEMEACSNGALIPGNLSKEEEELSSQMSSFNEAMTQIRELEEKAMEELKEIIQQGPDWLELSEMTEQPDYDLETFVNKAESALAQQAKHFSALRDVIKALRLAMQLEEQASRQISSKKRPQ |
